Results taken from PubChem BioAssay AID588590 (National Center for Advancing Translational Sciences (NCATS), 2011).
In all, about 390,000 compounds went through this assay and about 4,000 (1%) were called active. Inconclusive results, whose numbers are uncertain, are shown with a selection of clear calls. The call rests on the fitted dose curve; in most records, active means well fitted inhibition curve with a large enough effect; inconclusive means small, poorly fitted or top-dose-only effect, or another doubt; inactive means no such curve, though single readings can be large or run the other way. Where the call is inconclusive, the potency comes from a doubtful curve fit.

Amino acid sequences for entries named in this document (tags omitted). A change or cut given only in a name is not applied to a line headed by its entry.
UniProt Q9UNA4: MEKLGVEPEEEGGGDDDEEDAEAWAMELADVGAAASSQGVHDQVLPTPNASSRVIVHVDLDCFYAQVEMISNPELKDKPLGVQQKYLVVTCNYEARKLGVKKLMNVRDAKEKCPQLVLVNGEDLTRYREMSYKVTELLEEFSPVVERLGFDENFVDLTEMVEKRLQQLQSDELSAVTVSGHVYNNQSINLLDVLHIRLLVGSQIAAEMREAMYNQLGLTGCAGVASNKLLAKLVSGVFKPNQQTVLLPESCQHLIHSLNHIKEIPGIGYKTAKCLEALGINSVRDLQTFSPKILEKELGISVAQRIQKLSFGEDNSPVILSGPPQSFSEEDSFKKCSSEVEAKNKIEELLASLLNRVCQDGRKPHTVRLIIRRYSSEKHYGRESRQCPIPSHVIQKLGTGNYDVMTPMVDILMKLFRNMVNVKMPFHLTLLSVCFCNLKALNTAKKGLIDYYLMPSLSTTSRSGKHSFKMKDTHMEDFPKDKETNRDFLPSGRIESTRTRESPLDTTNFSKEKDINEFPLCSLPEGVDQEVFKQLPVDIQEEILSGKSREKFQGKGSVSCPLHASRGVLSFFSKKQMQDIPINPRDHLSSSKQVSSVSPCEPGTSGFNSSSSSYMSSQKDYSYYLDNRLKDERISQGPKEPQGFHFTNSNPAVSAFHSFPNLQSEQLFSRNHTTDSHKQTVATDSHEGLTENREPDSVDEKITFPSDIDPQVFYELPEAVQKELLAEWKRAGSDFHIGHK

These compounds were tested against DNA polymerase iota (Homo sapiens) (UniProt Q9UNA4) (assay: qHTS for Inhibitors of Polymerase Iota). Details: Pol iota fluorescent replication assay, 10 min; series mostly up to 115 µM; activity, negative = inhibition: at the top concentration.
Method in brief: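 Pol iota at 10 nM preincubated 15 min with compounds at room temperature; reaction started with fluorescent substrate, 50 nM final. Fluorescence read kinetically at 0 and 10 min; buffer-only wells as negative control.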
Potency means the concentration at half of the fitted maximal effect.

Q: How did the “activity, negative = inhibition” value turn out when `CCCCc1nc2ccccc2n2c(-c3ccc(OC)cc3)c3c(=O)n(C)c(=O)n(C)c3c12` was run?
A: inactive: 15.4%

Q: `O=C(COC(=O)C1CCC1)Nc1cccc(S(=O)(=O)N2CCOCC2)c1` was tested. Which Potency did it give?
A: inconclusive: 56.2 µM [inhibitor, partial curve, poor fit]

Q: For `CC(/C=C/c1ccco1)=N/NC(=O)c1ccc(C)nc1`, which Potency is on record?
A: inconclusive: 39.8 µM [inhibitor, single point]

Q: Which Potency does the source give for `O=C(NCc1ccc(Cl)cc1)C1CCN(S(=O)(=O)c2ccc(N3CCCC3=O)cc2)CC1` here?
A: inconclusive: 89.1 µM [inhibitor, single point]

Q: How did the Potency turn out when `CCN(CC(=O)Nc1ccc2c(c1)OCCO2)c1ccc(S(=O)(=O)N2CCOCC2)cn1` was run?
A: inconclusive: 10 µM [inhibitor, partial curve, poor fit]

Q: `COc1cc2c(cc1OC)C(COc1ccc(F)cc1)N(C(=O)c1ccc(S(=O)(=O)N3CCCC3)cc1)CC2` (configuration not stated) was tested. Which “activity, negative = inhibition” value did it give?
A: inactive: 8.58%

Q: `CCN(CC)c1ccc(C=C2SC(=S)NC2=O)cc1` was tested. Which Potency did it give?
A: inconclusive: 89.1 µM [inhibitor, single point]

Q: For `COc1cc(C(=O)COC(=O)c2cnc(C)cn2)ccc1OC(F)F`, which Potency is on record?
A: inconclusive: 100 µM [inhibitor, single point]

Q: Which “activity, negative = inhibition” value does the source give for `COC(=O)c1cc(NC(=O)[C@H](CCS(C)(=O)=O)N2Cc3ccccc3C2=O)cc(C(=O)OC)c1` here?
A: inactive: 20.1%

Q: How did the Potency turn out when `CCOC(=O)c1c(C)[nH]c(O)c1C=Nc1ccc(Cl)cc1` was run?
A: inconclusive: 39.8 µM [inhibitor, single point]

Q: With `O=C(CSCc1ccccc1)NCc1ccc2c(c1)OCO2` as the compound, how does the Potency read?
A: inconclusive: 3.98 µM [inhibitor, partial curve, poor fit]

Q: Which Potency does the source give for `CC(=O)Nc1ccc(NC(=O)c2ccc(COc3ccc(Cl)cc3Cl)o2)cc1` here?
A: inconclusive: 89.1 µM [inhibitor, partial curve, poor fit]

Q: How did the “activity, negative = inhibition” value turn out when `CCOc1ccc(-c2cc(-c3nc(-c4cc(OC)c(OC)c(OC)c4)no3)[nH]n2)cc1Cl` was run?
A: inactive: 2.41%

Q: With `Clc1ccc(CSc2nnc(-c3c[nH]c4ccccc34)o2)cc1` as the compound, how does the Potency read?
A: inconclusive: 56.2 µM [inhibitor, full curve]

Q: How did the Potency turn out when `COc1ccccc1/C=C(/CC(=O)NCc1ccc(F)cc1)c1nc2ccccc2s1` was run?
A: inconclusive: 22.4 µM [inhibitor, full curve]

Q: For `CC(=O)Oc1ccc(N(C(C)=O)S(=O)(=O)c2ccc3ccccc3c2)cc1Br`, which Potency is on record?
A: inconclusive: 70.8 µM [inhibitor, partial curve]

Q: `COC(=O)c1ccccc1NC(=O)c1ccc2nc(Cc3ccccc3)oc2c1` was tested. Which “activity, negative = inhibition” value did it give?
A: inactive: 30%

Q: `O=C(CCCn1c(=O)c2ccccc2n(Cc2ccc(F)cc2Cl)c1=O)NCCc1ccc(Cl)cc1` was tested. Which “activity, negative = inhibition” value did it give?
A: inactive: 16.3%

Q: How did the Potency turn out when `COc1cc(C(C)=O)ccc1OCc1cn(CC(=O)c2ccc(O)cc2)nn1` was run?
A: active: 4.47 µM

Q: How did the Potency turn out when `O=C(COC(=O)/C=C/c1ccco1)Nc1cc(S(=O)(=O)N2CCOCC2)ccc1Cl` was run?
A: active: 50.1 µM

Q: How did the Potency turn out when `NC(=O)c1cccc2c1C(=O)N(C1CCCCC1)C2` was run?
A: inconclusive: 63.1 µM [inhibitor, single point]

Q: How did the Potency turn out when `Cc1[nH]n(-c2ccccc2)c(=O)c1N=Nc1nccs1` was run?
A: inconclusive: 28.2 µM [inhibitor, partial curve, poor fit]

Q: For `COc1ccc(OC)c(/C=N\NC(=O)c2ccc(-c3ccccc3)cc2)c1`, which “activity, negative = inhibition” value is on record?
A: inactive: 26.6%

Q: Which “activity, negative = inhibition” value does the source give for `COCCn1c(SCc2cc(=O)n3ccsc3n2)nnc1-c1ccncc1` here?
A: inactive: 125%

Q: Which Potency does the source give for `O/N=C(\Cc1cscn1)c1ccc(O)cc1O` here?
A: inconclusive: 4.47 µM [inhibitor, full curve, poor fit]

Q: `CC(C)Oc1ccc(CNC(=O)c2ccc(CS(=O)Cc3ccccc3Cl)o2)cc1` (configuration not stated) was tested. Which Potency did it give?
A: inconclusive: 100 µM [inhibitor, partial curve, poor fit]

Q: `O=C(CSc1nc(Nc2ccccc2)nc(N2CCOCC2)n1)Nc1cc(Cl)ccc1O` was tested. Which Potency did it give?
A: inconclusive: 89.1 µM [inhibitor, single point]

Q: For `CCOC(=O)c1c(NC(=O)CSc2cn(CCNC(=O)c3ccc(OC)c(OC)c3)c3ccccc23)sc2c1CCC2`, which “activity, negative = inhibition” value is on record?
A: inactive: 10.7%

Q: `O=C(COc1ccc(-c2ccccc2)cc1)NNC(=O)Nc1ccccc1` was tested. Which Potency did it give?
A: inconclusive: 44.7 µM [inhibitor, partial curve, poor fit]

Q: How did the Potency turn out when `O=C1NC(=S)S/C1=C\c1coc2ccc(O)cc2c1=O` was run?
A: inconclusive: 28.2 µM [inhibitor, full curve]

Q: With `COc1ccc(NC(=O)CCCC(=O)OCC(=O)c2cccc(OC)c2)cc1` as the compound, how does the Potency read?
A: inconclusive: 10 µM [inhibitor, partial curve, poor fit]

Q: For `Cc1ccnc2c(O)cccc12`, which Potency is on record?
A: inconclusive: 50.1 µM [inhibitor, partial curve, poor fit]

Q: How did the “activity, negative = inhibition” value turn out when `COC(=O)CN1C(=O)CSc2ccc(S(=O)(=O)Nc3ccccc3)cc21` was run?
A: inactive: 15.9%

Q: How did the Potency turn out when `COC(=O)c1sc(NC(C)=O)c(C(=O)OC)c1C` was run?
A: inconclusive: 11.2 µM [inhibitor, partial curve, poor fit]

Q: How did the Potency turn out when `COc1cc(OC)cc(-c2cc3nc(C4CCN(C(=O)OC(C)(C)C)CC4)cc(=O)n3[nH]2)c1` was run?
A: inconclusive: 79.4 µM [inhibitor, partial curve]

Q: For `CCOc1cccc2sc(N(CCN(C)C)C(=O)CCS(=O)(=O)c3ccccc3)nc12`, which Potency is on record?
A: inconclusive: 39.8 µM [inhibitor, partial curve]

Q: With `Cc1ccc(C(=O)NNC(=S)NC(=O)c2ccco2)cc1` as the compound, how does the Potency read?
A: inconclusive: 100 µM [inhibitor, partial curve, poor fit]

Q: `O=c1c(C(c2ccc(Br)cc2)c2c(O)nc3n(c2=O)CCCS3)c(O)nc2n1CCCS2` was tested. Which Potency did it give?
A: inconclusive: 39.8 µM [inhibitor, partial curve, poor fit]

Q: With `O=C(CSc1ccc2nnc(-c3ccc(F)cc3)n2n1)N1CCOCC1` as the compound, how does the Potency read?
A: inconclusive: 100 µM [inhibitor, single point]

Q: `CCC1=C(OC(=O)N(CC)CC)N2C(=O)OC(=NCCOC)[C@]2(Cc2ccccc2)[C@H]2C1=CC[C@H]1C(=O)NC(=O)[C@H]12` was tested. Which Potency did it give?
A: inconclusive: 79.4 µM [inhibitor, single point]

Q: For `CCC(=O)N1CCc2cc(CNC(=O)Cc3ccc(OC)c(OC)c3)ccc21`, which “activity, negative = inhibition” value is on record?
A: inactive: 11%

Q: How did the Potency turn out when `FC(F)(F)c1ccc2c(c1)ncc1c(-c3ccccc3)nn(-c3ccccc3)c12` was run?
A: inconclusive: 89.1 µM [inhibitor, single point]

Q: How did the “activity, negative = inhibition” value turn out when `Cc1ccc(OCCn2cnc3cc([N+](=O)[O-])ccc3c2=O)cc1` was run?
A: inactive: 168%

Q: With `COc1ccc(NS(=O)(=O)c2cc(N)ccc2N2CCOCC2)cc1` as the compound, how does the “activity, negative = inhibition” value read?
A: inactive: 14.7%

Q: `Cc1ccnc(NC(=O)c2ccc3c(c2)NC(=O)C(C)S3)c1` (configuration not stated) was tested. Which Potency did it give?
A: inconclusive: 56.2 µM [inhibitor, partial curve, poor fit]

Q: How did the “activity, negative = inhibition” value turn out when `COc1ccc(NC(=O)c2ccc3c(c2)N(Cc2cccc(Cl)c2)C(=O)c2ccccc2S3(=O)=O)cc1Cl` was run?
A: inactive: 33%

Q: With `COc1cccc(-n2cc(C(=O)NCCCOC(C)C)c3ccccc3c2=O)c1` as the compound, how does the “activity, negative = inhibition” value read?
A: inactive: -21.6%

Q: How did the Potency turn out when `CCOC(=O)c1ccccc1NC(=O)COC(=O)CC1CCCCC1` was run?
A: inconclusive: 89.1 µM [inhibitor, partial curve, poor fit]

Q: For `CC1(C)CC(=O)C2=C(C1)c1c(ccc3ccccc13)NC2c1ccco1` (configuration not stated), which Potency is on record?
A: inconclusive: 39.8 µM [inhibitor, partial curve]

Q: With `CCN(CC)C(=O)CSc1nc(-c2ccccc2)cc(-c2ccc(OC)cc2)c1C#N` as the compound, how does the “activity, negative = inhibition” value read?
A: inactive: -12.9%

Q: `O=C(COc1cc(O)c2c(=O)cc(-c3ccccc3)oc2c1)c1ccc(F)cc1` was tested. Which Potency did it give?
A: inconclusive: 100 µM [inhibitor, single point]

Q: For `C=CC[n+]1c(/C=C2\C=Cc3cc(C)ccc3N2CC)ccc2ccccc21`, which Potency is on record?
A: inconclusive: 11.2 µM [inhibitor, partial curve, poor fit]

Q: Which “activity, negative = inhibition” value does the source give for `CN(C)c1ccc(/C=C/c2ccnc3c2ccc2ccccc23)cc1` here?
A: inactive: 30.9%

Q: How did the “activity, negative = inhibition” value turn out when `COc1ccc(CC(=O)NCc2ccc(Cl)cc2)cc1S(=O)(=O)N1CCOCC1` was run?
A: inactive: 20.8%

Q: For `Cc1ccc(O)c(N=CC2=C(O)c3ccccc3C2=O)c1`, which Potency is on record?
A: inconclusive: 5.01 µM [inhibitor, full curve, poor fit]

Q: With `COc1ccc(N2Cc3cccc(C(=O)Nc4ccc(C)cc4)c3C2=O)cc1` as the compound, how does the Potency read?
A: active: 79.4 µM

Q: For `Cc1ccc(N2C(=O)CC(N3CCN(c4ccc(F)cc4)CC3)C2=O)c(C)c1` (configuration not stated), which “activity, negative = inhibition” value is on record?
A: inactive: 14.3%

Q: With `COc1cccc(-c2nnc(NC(=O)c3ccccc3Br)o2)c1` as the compound, how does the Potency read?
A: inconclusive: 70.8 µM [inhibitor, single point]

Q: How did the Potency turn out when `COc1ccc(F)cc1C1=CC(=O)C[C@H](c2ccc3c(c2)OCO3)C1` was run?
A: inconclusive: 44.7 µM [inhibitor, partial curve, poor fit]

Q: `Cc1ccc(C)n1-c1cccc(NC(=O)c2ccccc2)c1` was tested. Which “activity, negative = inhibition” value did it give?
A: inactive: 0.64%

Q: With `c1coc(CNc2nc3nonc3nc2NCc2ccco2)c1` as the compound, how does the Potency read?
A: inconclusive: 20 µM [inhibitor, full curve, poor fit]

Q: How did the Potency turn out when `Cn1nnnc1SCC1=C(C(=O)O)N2C(=O)C(NC(=O)Cn3nc(C(F)F)cc3C3CC3)C2SC1` (configuration not stated) was run?
A: active: 35.5 µM

Q: `CC(=O)Nc1ccccc1C(=O)C(=O)O` was tested. Which Potency did it give?
A: inconclusive: 39.8 µM [inhibitor, single point]

Q: With `CCN(CC)C(=O)C1CCN(Cc2cccc(OCc3ccccc3)c2)CC1` as the compound, how does the Potency read?
A: inconclusive: 20 µM [inhibitor, single point]

Q: `CCOC(=O)c1nnn(-c2nonc2N)c1COc1cc(C)c(Cl)c(C)c1` was tested. Which Potency did it give?
A: inconclusive: 100 µM [inhibitor, partial curve, poor fit]

Q: `C[n+]1ccccc1/C=C/c1c(F)cccc1F` was tested. Which Potency did it give?
A: inconclusive: 89.1 µM [inhibitor, single point]

Q: Which Potency does the source give for `Cc1ccc2cc(C#N)c(SCC(=O)NCc3ccco3)nc2c1` here?
A: inconclusive: 25.1 µM [inhibitor, single point]
